From article PMC9974436 come the findings set out here.

Assay [1] concerns the target T1, 1700029I15Rik (mouse (endogenous in testis)), Q8CF31.
T1 chain: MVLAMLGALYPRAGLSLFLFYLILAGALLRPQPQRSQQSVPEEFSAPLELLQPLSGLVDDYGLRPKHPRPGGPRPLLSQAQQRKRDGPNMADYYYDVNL
The assay is described as follows: co-IP; co-IP from mouse testes and Western blot. As to conditions: remark: other sources report otherwise. On the technique in general: Immunoblotting shows a protein as a band on a membrane.

The target in assay [2] is T2, 1700029I15Rik-3 × FLAG (mouse) (UniProt Q8CF31).
T2 sequence: T1 chain
The assay is described as follows: co-IP; lysates of HEK293T cells transiently expressing 1700029I15Rik-3 × FLAG; antibody-conjugated magnetic beads; SDS-PAGE and Western blot of endogenous partners.

In assay [3] the target is T3, 1700029I15Rik (mouse (endogenous in testis)) (UniProt Q8CF31).
T3 sequence: T1 chain
The assay can be described thus: co-IP; co-IP from mouse testes and Western blot.

No constants are given. Whether binding was seen depends on the method and setting. Binding seen in cells or lysates may run through a third protein. Some results given as binding are weak or reduced against the parent protein; the word gives no strength. For some of these results: Tags and fused reporters may be left off the sequences shown.

B1: Izumo sperm–egg fusion 1 (IZUMO1), Q9D9J7 22-397 (protein)
chain: CIKCDQFVTDALKTFENTYLNDHLPHDIHKNVMRMVNHEVSSFGVVTSAEDSYLGAVDENTLEQATWSFLKDLKRITDSDLKGELFIKELLWMLRHQKDIFNNLARQFQKEVLCPNKCGVMSQTLIWCLKCEKQLHICRKSLDCGERHIEVHRSEDLVLDCLLSWHRASKGLTDYSFYRVWENSSETLIAKGKEPYLTKSMVGPEDAGNYRCVLDTINQGHATVIRYDVTVLPPKHSEENQPPNIITQEEHETPVHVTPQTPPGQEPESELYPELHPELYPELIPTVAQNPEKKMKTRLLILLTLGFVVLVASIIISVLHFRKVSAKLKNASDEVKPTASGSKSDQSLSQQMGLKKASQADFNSDYSGDKSEATEN
In the case of B1, the binding entry in assay [1] is on record as “no binding”.

B2: endogenous OSTC of HEK293T cells (protein, UniProt Q9NRP0 1-149)
chain: METLYRVPFLVLECPNLKLKKPPWLHMPSAMTVYALVVVSYFLITGGIIYDVIVEPPSVGSMTDEHGHQRPVAFLAYRVNGQYIMEGLASSFLFTMGGLGFIILDRSNAPNIPKLNRFLLLFIGFVCVLLSFFMARVFMRMKLPGYLMG
As for B2, the binding result in assay [2] is reported as “binds”.

B3: endogenous TMED10 of HEK293T cells (protein, UniProt P49755 32-219)
chain: ISFHLPINSRKCLREEIHKDLLVTGAYEISDQSGGAGGLRSHLKITDSAGHILYSKEDATKGKFAFTTEDYDMFEVCFESKGTGRIPDQLVILDMKHGVEAKNYEEIAKVEKLKPLEVELRRLEDLSESIVNDFAYMKKREEEMRDTNESTNTRVLYFSIFSMFCLIGLATWQVFYLRRFFKAKKLIE
In the case of B3, the binding entry in assay [2] is given as “no binding”.

B4: equatorin (EQTN) (protein, UniProt Q9D9V2 21-337)
chain: QPIVGQEPGVTLSDEEQYYADEENNTDGNSVALHKLEENEMDTPANEKTGNYYKDIKQYVFTTPNIKGSEVSVTATTNLEFAVKKNYKASKPTASGEEEKPSESSRKTSTPNIPAFWTILSKAVNETAVSMDDKDQFFQPIPASDLNATNEDKLSELEEIKLKLMLGISLMTLVLLIPLLIFCFATLYKLRHLRDKSYESQYSINPELATLSYFHPTEGVSDTSFSKSADSNSYWVHNSSEMRRSRTRRSKSKPMDFSAGSNQTVLTDESSFLPPEETRFLLPEEPGKELIVERGPMQAMNEIDAQLLLNKEGSPSN
With B4, the binding result in assay [3] is given as “no binding”.
